Results reported in paper PMC10127746, “Genetic Dissection of Budding Yeast PCNA Mutations Responsible for the Regulated Recruitment of Srs2 Helicase” (mBio, 2023).
Results are given in words; binding and its absence hold for the method and conditions named. Tags and fused reporters may be left off the sequences shown.

Sequences of proteins named here, by UniProt entry; tags and fusion partners are left off.
UniProt P15873: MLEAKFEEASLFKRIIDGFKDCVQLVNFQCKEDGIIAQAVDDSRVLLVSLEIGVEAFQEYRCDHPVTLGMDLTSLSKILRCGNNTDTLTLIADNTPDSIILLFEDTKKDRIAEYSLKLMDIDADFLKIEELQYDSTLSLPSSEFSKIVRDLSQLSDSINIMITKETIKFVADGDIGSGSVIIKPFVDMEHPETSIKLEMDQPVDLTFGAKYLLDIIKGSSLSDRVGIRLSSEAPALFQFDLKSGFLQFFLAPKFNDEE

Molecular target: T1, Siz1, Gal4BD fusion (S. cerevisiae) (UniProt Q04195)
T1 sequence: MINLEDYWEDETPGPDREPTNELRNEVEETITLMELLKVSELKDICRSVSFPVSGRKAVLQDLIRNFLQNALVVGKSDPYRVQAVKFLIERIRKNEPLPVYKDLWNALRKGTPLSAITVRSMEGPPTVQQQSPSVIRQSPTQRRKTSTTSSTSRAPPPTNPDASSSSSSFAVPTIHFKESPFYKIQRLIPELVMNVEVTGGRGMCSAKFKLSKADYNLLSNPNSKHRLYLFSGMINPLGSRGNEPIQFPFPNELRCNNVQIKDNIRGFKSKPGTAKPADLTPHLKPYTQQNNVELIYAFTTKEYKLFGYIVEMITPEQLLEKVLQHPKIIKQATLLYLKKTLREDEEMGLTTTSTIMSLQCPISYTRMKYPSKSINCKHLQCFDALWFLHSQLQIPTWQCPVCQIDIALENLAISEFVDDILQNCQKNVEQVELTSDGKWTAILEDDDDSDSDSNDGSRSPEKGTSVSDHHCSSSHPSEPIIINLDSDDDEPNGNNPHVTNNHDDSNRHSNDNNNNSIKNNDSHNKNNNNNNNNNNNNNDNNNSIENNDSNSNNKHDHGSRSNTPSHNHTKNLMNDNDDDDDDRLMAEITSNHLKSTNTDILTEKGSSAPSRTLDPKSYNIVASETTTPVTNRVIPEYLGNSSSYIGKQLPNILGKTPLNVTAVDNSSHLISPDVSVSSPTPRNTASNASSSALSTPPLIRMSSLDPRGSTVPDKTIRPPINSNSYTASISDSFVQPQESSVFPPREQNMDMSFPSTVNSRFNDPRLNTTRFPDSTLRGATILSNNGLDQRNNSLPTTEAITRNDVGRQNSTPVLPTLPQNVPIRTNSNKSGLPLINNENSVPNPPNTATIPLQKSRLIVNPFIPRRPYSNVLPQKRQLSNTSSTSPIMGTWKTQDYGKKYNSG
Test: two-hybrid; Gal4BD fusions (pGBT9: Srs2, Siz1, Rad30) and Gal4AD fusions (pGAD424: Pol30 and mutants) cotransformed into PJ69-4a; growth on SD-Leu-Trp-His with or without 3AT, 30°C, 2 to 6 days

For “Pol30 (PCNA), Gal4AD fusion (from UniProt P15873 1-258)”, the binding was “no binding”.
